The supplement of paper PMC7666118
The other results are listed elsewhere or left out.

Sequences of proteins named here, by UniProt entry; tags and fusion partners are left off. A change or cut given only in a name is not applied to a line headed by its entry.
UniProt O94766: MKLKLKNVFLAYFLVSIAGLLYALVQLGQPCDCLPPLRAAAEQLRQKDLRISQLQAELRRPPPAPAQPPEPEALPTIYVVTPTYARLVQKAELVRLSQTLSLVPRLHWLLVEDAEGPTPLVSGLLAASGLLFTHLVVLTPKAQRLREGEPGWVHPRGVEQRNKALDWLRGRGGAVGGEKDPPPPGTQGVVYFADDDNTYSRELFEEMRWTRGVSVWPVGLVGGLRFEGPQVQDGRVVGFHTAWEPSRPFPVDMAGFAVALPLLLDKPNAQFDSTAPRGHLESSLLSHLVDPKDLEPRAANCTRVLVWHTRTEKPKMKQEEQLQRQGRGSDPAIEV
UniProt Q96G97: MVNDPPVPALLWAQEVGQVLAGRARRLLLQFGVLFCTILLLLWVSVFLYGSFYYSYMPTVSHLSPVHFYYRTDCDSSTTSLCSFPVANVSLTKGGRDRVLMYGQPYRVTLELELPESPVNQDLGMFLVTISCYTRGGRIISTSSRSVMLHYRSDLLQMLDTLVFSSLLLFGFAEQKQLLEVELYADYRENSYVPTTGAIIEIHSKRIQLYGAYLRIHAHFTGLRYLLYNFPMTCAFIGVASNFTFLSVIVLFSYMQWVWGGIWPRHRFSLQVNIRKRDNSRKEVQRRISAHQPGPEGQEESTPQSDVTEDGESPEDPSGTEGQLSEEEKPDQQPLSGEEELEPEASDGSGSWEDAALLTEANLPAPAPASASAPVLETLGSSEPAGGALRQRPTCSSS
UniProt Q99933: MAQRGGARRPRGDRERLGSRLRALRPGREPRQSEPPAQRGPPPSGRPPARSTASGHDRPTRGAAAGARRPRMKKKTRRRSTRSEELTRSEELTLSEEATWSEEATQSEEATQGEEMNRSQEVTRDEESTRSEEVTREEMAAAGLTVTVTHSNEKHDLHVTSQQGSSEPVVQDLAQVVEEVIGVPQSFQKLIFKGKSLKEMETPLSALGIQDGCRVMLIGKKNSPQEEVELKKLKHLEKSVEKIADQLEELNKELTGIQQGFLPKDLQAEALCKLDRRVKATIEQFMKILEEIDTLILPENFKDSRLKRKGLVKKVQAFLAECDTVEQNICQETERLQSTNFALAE
UniProt Q12980: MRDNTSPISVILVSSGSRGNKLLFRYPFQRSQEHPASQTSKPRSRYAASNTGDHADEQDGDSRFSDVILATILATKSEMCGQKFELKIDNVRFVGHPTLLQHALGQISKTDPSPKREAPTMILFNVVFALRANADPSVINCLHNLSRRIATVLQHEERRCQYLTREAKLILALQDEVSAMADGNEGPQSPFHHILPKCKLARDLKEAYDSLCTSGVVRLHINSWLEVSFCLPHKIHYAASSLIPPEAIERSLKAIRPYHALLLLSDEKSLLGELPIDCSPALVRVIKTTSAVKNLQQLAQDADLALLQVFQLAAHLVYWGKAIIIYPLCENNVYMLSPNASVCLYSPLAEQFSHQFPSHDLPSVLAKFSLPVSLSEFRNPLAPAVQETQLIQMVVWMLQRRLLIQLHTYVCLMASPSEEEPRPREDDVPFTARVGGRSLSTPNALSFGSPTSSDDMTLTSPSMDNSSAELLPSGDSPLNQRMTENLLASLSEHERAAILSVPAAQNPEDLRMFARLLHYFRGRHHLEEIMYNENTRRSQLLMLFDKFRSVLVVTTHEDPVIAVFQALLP
UniProt Q99622: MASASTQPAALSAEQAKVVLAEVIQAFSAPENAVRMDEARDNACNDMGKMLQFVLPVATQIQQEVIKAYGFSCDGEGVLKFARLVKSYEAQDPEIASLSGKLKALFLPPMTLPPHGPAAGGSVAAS
UniProt P30043: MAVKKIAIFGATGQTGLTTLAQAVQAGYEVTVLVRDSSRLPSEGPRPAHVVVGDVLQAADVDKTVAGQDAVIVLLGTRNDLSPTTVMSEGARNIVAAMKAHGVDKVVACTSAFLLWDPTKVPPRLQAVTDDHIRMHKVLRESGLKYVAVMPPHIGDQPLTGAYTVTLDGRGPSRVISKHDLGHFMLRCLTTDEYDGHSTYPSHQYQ
UniProt Q9BSJ5: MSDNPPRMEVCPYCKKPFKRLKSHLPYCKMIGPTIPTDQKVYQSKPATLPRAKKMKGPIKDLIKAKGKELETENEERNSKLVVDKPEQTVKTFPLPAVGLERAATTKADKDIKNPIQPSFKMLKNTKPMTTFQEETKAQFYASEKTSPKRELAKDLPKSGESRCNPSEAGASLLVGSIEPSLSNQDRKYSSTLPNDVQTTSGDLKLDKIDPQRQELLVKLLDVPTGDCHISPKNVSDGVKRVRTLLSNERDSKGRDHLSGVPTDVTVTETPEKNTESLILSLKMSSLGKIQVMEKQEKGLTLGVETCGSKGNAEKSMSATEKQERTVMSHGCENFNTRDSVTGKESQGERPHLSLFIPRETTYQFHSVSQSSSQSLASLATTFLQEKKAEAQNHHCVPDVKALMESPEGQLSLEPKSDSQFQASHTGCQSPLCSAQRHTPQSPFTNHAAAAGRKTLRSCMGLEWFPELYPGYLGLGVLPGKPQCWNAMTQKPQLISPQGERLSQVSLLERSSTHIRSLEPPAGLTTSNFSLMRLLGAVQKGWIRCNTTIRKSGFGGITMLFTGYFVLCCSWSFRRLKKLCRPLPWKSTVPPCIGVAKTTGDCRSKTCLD
UniProt Q8IX90, whole entry: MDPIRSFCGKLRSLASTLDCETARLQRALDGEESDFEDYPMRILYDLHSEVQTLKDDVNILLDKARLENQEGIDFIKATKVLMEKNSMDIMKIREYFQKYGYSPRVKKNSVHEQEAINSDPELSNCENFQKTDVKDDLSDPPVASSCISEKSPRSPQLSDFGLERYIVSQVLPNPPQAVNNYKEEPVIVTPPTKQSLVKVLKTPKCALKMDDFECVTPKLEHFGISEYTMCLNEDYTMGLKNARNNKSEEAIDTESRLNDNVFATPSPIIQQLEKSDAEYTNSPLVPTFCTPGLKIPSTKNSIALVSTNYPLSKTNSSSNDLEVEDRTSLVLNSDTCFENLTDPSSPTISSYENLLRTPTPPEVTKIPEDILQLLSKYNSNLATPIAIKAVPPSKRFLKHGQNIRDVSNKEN
UniProt Q9UII2: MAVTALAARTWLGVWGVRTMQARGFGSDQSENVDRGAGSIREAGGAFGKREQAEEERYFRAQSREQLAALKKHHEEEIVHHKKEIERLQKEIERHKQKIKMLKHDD
UniProt Q9NWV8, whole entry: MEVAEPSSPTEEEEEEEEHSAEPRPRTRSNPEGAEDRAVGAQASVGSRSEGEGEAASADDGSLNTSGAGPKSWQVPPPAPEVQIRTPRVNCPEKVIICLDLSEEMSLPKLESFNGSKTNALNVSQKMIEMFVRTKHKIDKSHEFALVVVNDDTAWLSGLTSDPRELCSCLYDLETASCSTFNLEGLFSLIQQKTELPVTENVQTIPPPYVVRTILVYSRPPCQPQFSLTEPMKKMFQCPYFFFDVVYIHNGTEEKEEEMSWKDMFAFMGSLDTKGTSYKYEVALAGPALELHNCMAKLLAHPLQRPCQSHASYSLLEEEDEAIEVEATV
UniProt B4DLE8, whole entry, looked up: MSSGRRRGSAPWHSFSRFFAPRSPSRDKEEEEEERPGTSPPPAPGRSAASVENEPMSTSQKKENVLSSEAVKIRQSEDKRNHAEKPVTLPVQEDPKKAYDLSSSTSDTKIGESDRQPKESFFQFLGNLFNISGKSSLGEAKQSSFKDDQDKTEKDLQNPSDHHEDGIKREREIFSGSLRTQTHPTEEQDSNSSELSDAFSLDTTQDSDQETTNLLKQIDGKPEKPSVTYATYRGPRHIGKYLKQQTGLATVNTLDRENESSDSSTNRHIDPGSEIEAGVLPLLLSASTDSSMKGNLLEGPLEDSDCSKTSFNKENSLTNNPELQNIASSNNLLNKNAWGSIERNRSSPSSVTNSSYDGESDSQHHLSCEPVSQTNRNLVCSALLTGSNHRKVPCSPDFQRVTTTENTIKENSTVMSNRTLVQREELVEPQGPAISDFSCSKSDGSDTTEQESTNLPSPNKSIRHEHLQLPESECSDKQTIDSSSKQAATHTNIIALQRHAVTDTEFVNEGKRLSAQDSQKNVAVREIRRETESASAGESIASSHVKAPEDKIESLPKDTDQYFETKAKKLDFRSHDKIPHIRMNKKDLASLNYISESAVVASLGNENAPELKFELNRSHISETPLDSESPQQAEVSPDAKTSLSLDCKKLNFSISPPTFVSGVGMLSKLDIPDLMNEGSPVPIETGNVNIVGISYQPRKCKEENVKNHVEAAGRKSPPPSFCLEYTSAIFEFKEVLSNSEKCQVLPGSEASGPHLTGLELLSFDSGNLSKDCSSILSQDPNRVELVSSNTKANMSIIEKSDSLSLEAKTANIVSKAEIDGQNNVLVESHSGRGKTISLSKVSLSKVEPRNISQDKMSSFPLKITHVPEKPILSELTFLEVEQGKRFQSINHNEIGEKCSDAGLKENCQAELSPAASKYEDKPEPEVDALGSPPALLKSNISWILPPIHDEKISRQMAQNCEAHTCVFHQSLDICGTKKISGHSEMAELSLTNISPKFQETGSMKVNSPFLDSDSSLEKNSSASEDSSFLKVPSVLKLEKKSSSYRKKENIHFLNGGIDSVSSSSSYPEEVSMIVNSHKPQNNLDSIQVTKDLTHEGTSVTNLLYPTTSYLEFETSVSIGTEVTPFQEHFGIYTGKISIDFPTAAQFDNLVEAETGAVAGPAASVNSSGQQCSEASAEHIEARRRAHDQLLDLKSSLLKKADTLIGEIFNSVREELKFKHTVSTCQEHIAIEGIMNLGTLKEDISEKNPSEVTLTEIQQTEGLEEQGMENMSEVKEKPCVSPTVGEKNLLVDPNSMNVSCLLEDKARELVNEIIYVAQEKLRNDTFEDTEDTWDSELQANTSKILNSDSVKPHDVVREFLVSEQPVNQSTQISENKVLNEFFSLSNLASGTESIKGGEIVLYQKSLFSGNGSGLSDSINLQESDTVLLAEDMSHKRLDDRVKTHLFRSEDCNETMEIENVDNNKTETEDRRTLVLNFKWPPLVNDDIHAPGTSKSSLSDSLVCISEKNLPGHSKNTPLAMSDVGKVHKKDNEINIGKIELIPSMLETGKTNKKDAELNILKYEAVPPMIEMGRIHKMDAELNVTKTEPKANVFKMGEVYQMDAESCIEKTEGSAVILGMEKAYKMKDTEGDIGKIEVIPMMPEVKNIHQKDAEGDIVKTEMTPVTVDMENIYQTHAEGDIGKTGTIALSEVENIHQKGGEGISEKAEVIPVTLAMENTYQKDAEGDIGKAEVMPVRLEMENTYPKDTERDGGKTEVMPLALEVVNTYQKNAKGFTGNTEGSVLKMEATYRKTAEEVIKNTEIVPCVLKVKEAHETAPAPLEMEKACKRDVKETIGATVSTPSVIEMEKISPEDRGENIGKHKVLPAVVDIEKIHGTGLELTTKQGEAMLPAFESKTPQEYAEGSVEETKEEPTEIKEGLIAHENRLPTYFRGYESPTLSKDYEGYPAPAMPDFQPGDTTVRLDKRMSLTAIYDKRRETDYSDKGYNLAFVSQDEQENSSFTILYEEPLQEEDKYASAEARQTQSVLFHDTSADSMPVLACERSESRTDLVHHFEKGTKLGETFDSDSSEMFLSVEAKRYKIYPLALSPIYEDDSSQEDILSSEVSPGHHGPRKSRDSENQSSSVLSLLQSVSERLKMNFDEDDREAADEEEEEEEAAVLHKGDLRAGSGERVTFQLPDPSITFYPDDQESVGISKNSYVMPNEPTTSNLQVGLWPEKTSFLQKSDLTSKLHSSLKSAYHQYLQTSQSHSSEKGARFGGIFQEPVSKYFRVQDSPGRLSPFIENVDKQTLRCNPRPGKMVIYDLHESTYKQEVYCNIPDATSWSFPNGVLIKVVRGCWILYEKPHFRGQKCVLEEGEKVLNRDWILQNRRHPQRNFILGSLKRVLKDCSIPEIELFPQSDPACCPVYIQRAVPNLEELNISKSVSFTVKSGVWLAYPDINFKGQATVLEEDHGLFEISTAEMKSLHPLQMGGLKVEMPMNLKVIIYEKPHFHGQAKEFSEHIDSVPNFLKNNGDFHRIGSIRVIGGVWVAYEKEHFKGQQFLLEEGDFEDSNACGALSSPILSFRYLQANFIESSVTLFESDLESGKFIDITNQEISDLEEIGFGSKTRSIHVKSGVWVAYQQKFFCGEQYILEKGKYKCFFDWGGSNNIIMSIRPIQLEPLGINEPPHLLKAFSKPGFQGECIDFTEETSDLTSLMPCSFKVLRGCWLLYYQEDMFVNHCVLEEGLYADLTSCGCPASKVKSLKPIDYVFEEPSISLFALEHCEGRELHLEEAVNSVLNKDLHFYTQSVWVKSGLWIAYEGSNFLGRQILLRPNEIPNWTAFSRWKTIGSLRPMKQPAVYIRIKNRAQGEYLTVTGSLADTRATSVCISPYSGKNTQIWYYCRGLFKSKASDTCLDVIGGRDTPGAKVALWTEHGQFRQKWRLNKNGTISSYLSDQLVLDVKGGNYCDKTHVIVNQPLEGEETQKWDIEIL
UniProt O75348, whole entry: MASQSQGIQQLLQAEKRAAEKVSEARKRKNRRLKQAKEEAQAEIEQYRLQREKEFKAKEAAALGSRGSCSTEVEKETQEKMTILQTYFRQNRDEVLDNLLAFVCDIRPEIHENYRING

Compound: COc1ccc(Cn2ccc3cc(C)c(C(=O)NO)cc32)cc1
Test: dose-dependent thermal stabilisation call (2D-TPP, DLPTP, 10% FDR) (binary (1 = stabilised)); higher = stabilised by the compound
Settings: system: HL-60 intact cells; concentration range 0.04-10 µM
Description: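 2D thermal proteome profiling in intact HL-60 cells treated with BRD-3811 (0, 0.04, 0.29, 2, 10 uM) for 90 min at 37 C, then heated 3 min at one of 12 temperatures (42-63.9 C). Soluble protein was quantified by TMT10 MS. The value is the DLPTP call of the paper: dose-dependent thermal stabilisation over all temperatures at 10% FDR (F-test of a dose-response against a flat model); one experiment, one call per tested protein.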

Target	dose-dependent thermal stabilisation call
ATP2B1 (UniProt P20020)	inactive: 0
B3GAT3 (UniProt O94766)	inactive: 0
ATP5H (UniProt O75947)	inactive: 0
C10ORF125 (UniProt A2VDF0)	inactive: 0
BSCL2 (UniProt Q96G97)	inactive: 0
BIRC6 (UniProt Q9NR09)	inactive: 0
C19ORF28 (UniProt Q6NUT3)	inactive: 0
BAG1 (UniProt Q99933)	inactive: 0
C18ORF55 (UniProt Q9BVV7)	inactive: 0
C16ORF35 (UniProt Q12980)	inactive: 0
C12ORF57 (UniProt Q99622)	inactive: 0
ATPBD4 (UniProt Q7L8W6)	inactive: 0
BDH2 (UniProt Q9BUT1)	inactive: 0
BTK (UniProt Q06187)	inactive: 0
ATP9B (UniProt O43861)	inactive: 0
C12ORF11 (UniProt Q9NVM9)	inactive: 0
B3GALT6 (UniProt Q96L58)	inactive: 0
ATP8A1 (UniProt Q9Y2Q0)	inactive: 0

Target	dose-dependent thermal stabilisation call
C14ORF80 (UniProt Q86SX3)	inactive: 0
BLVRB (UniProt P30043)	inactive: 0
C17ORF80 (UniProt Q9BSJ5)	inactive: 0
ATRN (UniProt O75882)	inactive: 0
C13ORF3 (UniProt Q8IX90)	inactive: 0
AZI1 (UniProt Q9UPN4)	inactive: 0
ATP8B4 (UniProt Q8TF62)	inactive: 0
ATPIF1 (UniProt Q9UII2)	inactive: 0
C14ORF142 (UniProt Q9BXV9)	inactive: 0
C19ORF62 (UniProt Q9NWV8)	inactive: 0
C11ORF2	inactive: 0
C14ORF149 (UniProt Q96EM0)	inactive: 0
C11ORF68 (UniProt Q9H3H3)	inactive: 0
ATP11A (UniProt P98196)	inactive: 0
UniProt B4DLE8_HUMAN	inactive: 0
BIN2 (UniProt Q9UBW5)	inactive: 0
ATP6V1G1 (UniProt O75348)	inactive: 0
BCAS3 (UniProt Q9H6U6)	inactive: 0

Quoted at random: 2 entries already listed, in no set order.
Target	dose-dependent thermal stabilisation call
ATP6V1G1 (UniProt O75348)	inactive: 0
ATP8B4 (UniProt Q8TF62)	inactive: 0
